{"source": "patent US11712426B2", "about": "“Metallo-liothyronine” (Synthonics, Inc., priority 2018, dated 2023)", "origin": "cited, not measured here", "details": "Table 1; cited from earlier work", "data": [{"compound": "CCn1cc(C(=O)O)c(=O)c2cc(F)c(N3CCN(C)CC3)cc21", "note": "[Pefloxacin]", "values": [{"measurement": "pKa 1", "result": 6.21}, {"measurement": "pKa 2", "result": 7.87}]}]}
